Results are given in words; binding and its absence hold for the method and conditions named. For some assays here: Binding seen in cells or lysates may run through a third protein. Some results given as binding are weak or reduced against the parent protein; the word gives no strength. Tags and fused reporters may be left off the sequences shown.
How the values were obtained:
[1] = molecular target: T1, GST-MDA5 (purified from E. coli) (UniProt Q9BYX4); experiment: pull-down; both purified
T1 sequence: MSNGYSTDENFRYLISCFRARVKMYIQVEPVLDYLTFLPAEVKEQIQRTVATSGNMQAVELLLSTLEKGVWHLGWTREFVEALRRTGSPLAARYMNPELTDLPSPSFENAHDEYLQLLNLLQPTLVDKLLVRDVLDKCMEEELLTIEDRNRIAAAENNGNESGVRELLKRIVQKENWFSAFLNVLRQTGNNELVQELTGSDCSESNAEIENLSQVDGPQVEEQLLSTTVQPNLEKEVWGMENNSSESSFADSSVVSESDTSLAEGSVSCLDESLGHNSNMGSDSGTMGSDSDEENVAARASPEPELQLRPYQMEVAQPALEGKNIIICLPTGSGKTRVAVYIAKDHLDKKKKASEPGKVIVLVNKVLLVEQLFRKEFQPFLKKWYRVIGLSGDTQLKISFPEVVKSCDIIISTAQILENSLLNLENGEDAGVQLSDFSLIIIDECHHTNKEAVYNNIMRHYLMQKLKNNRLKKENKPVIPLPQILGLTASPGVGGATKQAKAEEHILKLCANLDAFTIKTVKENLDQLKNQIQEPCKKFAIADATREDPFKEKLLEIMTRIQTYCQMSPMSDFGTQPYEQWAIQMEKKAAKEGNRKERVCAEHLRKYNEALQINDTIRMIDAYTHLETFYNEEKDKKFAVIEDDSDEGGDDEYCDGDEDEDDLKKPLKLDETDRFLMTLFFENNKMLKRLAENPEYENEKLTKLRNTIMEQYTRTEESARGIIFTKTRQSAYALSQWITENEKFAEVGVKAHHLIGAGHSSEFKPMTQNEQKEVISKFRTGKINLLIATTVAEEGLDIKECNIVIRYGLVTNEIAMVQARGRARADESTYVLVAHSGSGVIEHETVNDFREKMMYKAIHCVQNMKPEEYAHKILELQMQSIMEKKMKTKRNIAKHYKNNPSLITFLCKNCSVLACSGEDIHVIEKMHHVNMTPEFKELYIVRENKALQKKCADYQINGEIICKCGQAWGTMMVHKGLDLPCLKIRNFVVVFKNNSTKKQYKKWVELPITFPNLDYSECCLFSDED

[2] = molecular target: T2, full-length GST-MDA5 (UniProt Q9BYX4); experiment: co-IP
T2 sequence: T1 sequence

Substance | binding [1] | binding [2]
Flag-nsp8 (SARS-CoV-2 nonstructural protein 8) (from UniProt P0DTD1 3943-4140) | binds | –
GFP-nsp8 (SARS-CoV-2 nonstructural protein 8) (from UniProt P0DTD1 3943-4140) | – | binds

— article PMC10681309
